According to US20070065890A1, “Method for promoting formation of facultative heterochromatin” (priority 2005, published 2007):
Results are given in words; binding and its absence hold for the method and conditions named. In cells and extracts the contact can be indirect. Some entries that bind do so weakly or less than the wild type.

Sequences of proteins named here, by UniProt entry; tags and fusion partners are left off. A change or cut given only in a name is not applied to a line headed by its entry. A line that says so, or that is headed by a name, gives the form on record, which may keep a tag or linker. Residues count along the entry.
UniProt P10412: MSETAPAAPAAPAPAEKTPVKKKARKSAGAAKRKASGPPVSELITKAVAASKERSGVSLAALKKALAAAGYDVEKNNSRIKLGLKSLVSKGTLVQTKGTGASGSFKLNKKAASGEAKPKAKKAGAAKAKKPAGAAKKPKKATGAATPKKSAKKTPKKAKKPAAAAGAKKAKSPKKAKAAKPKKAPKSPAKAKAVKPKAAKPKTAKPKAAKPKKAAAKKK
HA-tagged H1b expressed in 293 cells: residues 2-219 of P10412
UniProt Q96EB6: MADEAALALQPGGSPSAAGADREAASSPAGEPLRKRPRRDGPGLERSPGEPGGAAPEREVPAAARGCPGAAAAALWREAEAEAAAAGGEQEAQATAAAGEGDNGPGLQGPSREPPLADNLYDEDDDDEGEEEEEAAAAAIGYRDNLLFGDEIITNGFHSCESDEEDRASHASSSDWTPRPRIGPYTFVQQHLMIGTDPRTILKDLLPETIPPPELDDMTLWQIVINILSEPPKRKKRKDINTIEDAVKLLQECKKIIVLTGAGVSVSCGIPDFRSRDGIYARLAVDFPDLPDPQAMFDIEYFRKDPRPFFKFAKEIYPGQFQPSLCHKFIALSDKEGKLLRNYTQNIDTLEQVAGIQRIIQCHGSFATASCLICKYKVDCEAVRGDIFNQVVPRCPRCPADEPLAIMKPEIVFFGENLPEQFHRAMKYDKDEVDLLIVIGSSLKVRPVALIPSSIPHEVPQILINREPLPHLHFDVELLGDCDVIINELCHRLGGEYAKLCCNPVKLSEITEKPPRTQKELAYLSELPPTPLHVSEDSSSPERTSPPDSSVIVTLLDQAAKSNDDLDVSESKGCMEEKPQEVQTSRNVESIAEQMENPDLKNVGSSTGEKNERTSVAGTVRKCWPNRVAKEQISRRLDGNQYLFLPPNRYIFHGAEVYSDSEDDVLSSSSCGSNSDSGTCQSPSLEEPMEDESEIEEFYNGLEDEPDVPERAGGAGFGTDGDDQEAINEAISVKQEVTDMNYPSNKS

Assays:
[1] = molecular target: HA-tagged H1b expressed in 293 cells (human) (UniProt P10412); test: co-immunoprecipitation with anti-HA resin from 293 cell extracts
[2] = molecular target: purified recombinant HA-H1b (expressed in E. coli) (human) (UniProt P10412); test: in vitro pull-down, western blot

binding [1]	binding [2]	Substance
binds		endogenous SirT1 (from UniProt Q96EB6 2-747) (enzyme)
	binds	fusion protein containing the SirT1-specific N-terminal domain fused to FLAG (SirT1 1-268) (from UniProt Q96EB6 1-268)
